From the supplement of paper PMC12819154, “High-throughput peptide-centric local stability assay extends protein–ligand identification to membrane proteins, tissues and bacteria” (Nature Structural & Molecular Biology, 2025)
The other results are listed elsewhere or left out. Most entries show no effect beyond the scatter of the controls.

The chains behind the UniProt entries cited, without tags or fusion partners. Where a name states a change or a piece, a line headed by the entry shows the natural chain unless it says otherwise.
UniProt P0ACN7: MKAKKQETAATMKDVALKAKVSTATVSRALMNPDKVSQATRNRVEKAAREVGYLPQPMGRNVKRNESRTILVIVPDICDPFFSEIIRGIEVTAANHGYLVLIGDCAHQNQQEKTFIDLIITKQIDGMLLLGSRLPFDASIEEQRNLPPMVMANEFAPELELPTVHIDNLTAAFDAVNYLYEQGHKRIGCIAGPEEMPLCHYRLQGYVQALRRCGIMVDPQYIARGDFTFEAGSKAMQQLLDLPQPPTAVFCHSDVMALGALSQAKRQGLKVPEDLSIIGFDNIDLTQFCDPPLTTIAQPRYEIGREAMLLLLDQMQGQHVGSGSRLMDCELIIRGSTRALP
UniProt P0AA39: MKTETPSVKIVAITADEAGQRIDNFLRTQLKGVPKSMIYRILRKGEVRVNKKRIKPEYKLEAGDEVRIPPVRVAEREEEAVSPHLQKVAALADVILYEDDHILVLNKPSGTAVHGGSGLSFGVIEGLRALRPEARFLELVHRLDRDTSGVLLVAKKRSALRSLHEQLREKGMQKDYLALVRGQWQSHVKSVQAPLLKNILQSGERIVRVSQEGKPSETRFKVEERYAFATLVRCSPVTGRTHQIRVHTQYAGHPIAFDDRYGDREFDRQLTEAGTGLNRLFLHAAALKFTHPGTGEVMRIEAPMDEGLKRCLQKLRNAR
UniProt P0ACR7: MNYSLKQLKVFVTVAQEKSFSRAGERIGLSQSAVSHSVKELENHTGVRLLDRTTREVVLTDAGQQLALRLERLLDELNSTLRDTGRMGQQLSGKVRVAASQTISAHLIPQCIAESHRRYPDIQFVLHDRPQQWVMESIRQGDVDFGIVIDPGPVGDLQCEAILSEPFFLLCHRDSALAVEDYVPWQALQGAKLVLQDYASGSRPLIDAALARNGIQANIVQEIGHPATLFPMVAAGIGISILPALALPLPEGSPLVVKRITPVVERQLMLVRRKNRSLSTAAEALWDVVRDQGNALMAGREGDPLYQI
UniProt P0A9U1: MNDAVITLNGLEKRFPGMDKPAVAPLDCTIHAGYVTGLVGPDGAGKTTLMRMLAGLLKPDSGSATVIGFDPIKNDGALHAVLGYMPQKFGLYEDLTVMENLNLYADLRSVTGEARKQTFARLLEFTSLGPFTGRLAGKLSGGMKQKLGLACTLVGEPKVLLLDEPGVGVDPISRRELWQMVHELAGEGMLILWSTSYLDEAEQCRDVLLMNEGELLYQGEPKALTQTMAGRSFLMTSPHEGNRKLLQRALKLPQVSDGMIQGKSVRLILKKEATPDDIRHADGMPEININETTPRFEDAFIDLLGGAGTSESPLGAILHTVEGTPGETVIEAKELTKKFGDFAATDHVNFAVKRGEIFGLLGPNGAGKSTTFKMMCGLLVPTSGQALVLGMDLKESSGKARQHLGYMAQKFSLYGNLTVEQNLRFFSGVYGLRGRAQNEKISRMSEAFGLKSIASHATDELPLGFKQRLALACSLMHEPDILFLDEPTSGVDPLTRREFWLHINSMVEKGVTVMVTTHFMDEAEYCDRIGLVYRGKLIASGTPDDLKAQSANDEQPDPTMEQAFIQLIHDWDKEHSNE
UniProt P0ACL0: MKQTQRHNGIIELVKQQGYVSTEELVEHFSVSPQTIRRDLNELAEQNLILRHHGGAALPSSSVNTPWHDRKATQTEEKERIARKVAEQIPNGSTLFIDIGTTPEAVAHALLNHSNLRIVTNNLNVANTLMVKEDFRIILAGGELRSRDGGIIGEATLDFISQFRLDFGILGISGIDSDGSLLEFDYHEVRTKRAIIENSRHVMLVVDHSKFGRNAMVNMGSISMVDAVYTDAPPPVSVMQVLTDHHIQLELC
UniProt P0AB12: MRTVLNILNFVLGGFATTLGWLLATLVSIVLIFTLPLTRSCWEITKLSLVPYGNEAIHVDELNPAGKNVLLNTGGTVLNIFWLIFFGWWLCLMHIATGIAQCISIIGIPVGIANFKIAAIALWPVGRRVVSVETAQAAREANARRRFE
UniProt P0ACL7: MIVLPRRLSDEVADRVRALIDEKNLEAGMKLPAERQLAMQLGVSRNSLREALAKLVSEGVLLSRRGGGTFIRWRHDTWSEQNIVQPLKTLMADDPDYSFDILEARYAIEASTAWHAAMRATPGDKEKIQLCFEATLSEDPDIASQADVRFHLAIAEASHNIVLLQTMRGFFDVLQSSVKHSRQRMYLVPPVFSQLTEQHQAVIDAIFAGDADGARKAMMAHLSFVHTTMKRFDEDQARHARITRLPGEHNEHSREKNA
UniProt P0AC84: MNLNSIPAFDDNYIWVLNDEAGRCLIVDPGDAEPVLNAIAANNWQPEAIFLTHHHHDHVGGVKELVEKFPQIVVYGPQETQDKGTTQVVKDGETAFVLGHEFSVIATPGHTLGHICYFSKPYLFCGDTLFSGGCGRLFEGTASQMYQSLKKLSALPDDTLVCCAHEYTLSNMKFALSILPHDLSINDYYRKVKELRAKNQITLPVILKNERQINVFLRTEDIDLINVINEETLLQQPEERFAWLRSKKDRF
UniProt P0AC00: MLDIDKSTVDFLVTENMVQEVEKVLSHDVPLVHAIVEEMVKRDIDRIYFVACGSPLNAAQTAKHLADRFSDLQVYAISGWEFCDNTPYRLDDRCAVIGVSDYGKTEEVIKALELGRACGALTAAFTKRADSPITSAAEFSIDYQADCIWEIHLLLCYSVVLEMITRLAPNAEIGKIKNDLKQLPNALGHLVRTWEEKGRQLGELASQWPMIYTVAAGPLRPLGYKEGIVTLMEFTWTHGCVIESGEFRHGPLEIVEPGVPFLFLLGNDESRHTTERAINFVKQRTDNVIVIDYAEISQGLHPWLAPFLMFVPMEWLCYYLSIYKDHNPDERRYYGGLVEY
UniProt P0ACU5: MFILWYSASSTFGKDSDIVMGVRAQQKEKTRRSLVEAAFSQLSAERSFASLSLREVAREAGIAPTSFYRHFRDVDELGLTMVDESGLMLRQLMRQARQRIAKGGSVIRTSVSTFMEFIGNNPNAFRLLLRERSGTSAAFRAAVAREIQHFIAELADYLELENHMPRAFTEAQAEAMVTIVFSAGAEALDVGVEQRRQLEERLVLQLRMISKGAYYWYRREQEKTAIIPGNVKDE
UniProt P0AC51: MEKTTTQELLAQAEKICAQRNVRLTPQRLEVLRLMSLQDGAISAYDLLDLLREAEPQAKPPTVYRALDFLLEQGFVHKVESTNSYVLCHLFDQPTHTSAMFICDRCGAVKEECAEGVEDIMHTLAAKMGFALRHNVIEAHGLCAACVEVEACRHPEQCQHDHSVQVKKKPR
UniProt P0AAT4: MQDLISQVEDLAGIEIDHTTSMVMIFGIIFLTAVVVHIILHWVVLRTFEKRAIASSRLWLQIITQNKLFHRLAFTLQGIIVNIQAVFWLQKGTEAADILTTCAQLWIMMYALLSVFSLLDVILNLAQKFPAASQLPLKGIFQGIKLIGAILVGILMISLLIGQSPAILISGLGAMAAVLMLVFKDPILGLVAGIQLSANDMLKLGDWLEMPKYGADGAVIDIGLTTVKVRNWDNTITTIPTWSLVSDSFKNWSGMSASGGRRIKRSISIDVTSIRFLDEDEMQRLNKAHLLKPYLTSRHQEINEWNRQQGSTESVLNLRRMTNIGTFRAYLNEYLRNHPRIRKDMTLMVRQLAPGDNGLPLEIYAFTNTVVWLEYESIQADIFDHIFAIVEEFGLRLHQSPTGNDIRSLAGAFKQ
UniProt P0A9W9: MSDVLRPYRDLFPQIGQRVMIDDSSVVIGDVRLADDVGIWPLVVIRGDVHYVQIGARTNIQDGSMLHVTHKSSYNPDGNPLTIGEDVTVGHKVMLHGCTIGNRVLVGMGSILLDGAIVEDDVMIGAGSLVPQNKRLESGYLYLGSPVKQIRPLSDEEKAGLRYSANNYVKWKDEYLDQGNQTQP
UniProt P0AAB8: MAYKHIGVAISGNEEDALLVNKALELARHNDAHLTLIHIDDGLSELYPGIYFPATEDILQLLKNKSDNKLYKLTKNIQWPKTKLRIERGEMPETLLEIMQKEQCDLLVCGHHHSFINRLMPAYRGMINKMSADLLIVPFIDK
UniProt P0AA37: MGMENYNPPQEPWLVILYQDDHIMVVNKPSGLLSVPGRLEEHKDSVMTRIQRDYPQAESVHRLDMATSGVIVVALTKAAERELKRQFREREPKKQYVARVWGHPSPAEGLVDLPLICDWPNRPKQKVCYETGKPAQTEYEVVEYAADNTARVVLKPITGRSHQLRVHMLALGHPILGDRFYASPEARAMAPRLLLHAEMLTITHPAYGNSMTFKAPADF
UniProt P0AA41: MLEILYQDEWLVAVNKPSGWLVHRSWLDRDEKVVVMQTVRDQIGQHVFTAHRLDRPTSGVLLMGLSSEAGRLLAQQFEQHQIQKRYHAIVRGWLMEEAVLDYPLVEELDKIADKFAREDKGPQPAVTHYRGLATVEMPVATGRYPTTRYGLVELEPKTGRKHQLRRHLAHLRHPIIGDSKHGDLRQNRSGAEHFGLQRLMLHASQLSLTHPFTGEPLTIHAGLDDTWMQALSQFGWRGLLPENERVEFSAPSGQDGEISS
UniProt P0AAV6: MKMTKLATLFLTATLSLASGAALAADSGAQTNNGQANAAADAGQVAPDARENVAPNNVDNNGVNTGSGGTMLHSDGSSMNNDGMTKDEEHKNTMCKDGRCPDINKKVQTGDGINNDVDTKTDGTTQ
UniProt P0AB96: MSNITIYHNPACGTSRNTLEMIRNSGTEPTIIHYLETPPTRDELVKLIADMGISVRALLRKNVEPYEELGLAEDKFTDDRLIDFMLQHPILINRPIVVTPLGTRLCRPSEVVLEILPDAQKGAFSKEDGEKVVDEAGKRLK
UniProt P0A9T4: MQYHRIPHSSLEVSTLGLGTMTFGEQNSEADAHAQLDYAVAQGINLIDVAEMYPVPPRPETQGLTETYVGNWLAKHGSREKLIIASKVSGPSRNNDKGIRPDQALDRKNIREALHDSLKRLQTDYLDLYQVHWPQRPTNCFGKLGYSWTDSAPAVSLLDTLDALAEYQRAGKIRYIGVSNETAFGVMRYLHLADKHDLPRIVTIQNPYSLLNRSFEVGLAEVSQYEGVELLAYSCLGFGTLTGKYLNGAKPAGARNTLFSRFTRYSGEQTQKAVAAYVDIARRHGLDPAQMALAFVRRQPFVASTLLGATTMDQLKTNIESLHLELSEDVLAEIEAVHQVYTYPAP
UniProt P0ACK8: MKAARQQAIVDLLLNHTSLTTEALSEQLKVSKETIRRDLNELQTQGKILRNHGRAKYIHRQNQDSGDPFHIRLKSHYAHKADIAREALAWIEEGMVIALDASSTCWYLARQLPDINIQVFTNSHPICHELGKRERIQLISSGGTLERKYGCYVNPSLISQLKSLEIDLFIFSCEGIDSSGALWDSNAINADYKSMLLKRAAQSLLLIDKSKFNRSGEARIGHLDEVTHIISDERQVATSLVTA
UniProt P0ABU5: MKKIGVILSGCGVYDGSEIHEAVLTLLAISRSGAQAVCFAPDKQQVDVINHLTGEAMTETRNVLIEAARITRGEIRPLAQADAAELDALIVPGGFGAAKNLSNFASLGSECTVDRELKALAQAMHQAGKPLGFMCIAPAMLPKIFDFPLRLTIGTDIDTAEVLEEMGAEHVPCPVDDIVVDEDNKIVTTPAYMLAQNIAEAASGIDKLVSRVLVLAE
UniProt P0ACW6: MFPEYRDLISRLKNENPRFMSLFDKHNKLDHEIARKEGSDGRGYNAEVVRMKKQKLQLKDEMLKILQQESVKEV
UniProt P0AB24: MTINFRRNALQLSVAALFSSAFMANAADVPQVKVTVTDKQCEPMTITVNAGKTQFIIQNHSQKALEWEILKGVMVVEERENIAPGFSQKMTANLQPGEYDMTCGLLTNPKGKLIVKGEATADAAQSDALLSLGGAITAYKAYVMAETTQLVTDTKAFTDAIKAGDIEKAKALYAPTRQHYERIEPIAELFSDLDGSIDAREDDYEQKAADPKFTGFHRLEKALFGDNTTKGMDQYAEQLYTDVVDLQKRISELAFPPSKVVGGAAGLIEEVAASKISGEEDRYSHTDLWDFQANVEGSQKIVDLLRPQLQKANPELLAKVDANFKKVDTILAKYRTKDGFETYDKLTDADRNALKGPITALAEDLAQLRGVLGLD
UniProt P0AAK1: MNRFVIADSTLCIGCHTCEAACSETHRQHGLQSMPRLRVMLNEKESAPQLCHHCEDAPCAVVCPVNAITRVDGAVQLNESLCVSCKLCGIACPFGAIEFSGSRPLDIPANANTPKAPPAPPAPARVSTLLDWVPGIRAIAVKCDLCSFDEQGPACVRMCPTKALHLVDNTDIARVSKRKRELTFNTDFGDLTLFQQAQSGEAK
UniProt P0AAJ3: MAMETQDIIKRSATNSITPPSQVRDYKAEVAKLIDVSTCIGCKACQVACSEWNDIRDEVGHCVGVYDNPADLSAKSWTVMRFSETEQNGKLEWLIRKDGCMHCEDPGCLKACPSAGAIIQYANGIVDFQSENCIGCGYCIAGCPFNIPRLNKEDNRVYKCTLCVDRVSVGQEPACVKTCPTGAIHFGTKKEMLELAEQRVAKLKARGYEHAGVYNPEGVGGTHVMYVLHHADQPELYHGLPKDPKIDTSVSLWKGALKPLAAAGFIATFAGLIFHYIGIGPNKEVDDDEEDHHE

Compound: CC1(C)S[C@@H]2[C@H](NC(=O)[C@H](N)c3ccccc3)C(=O)N2[C@H]1C(=O)O [ampicillin]
Experiment: log2 fold change of tryptic peptide abundance, ligand vs vehicle (limited proteolysis) (log2 ratio); higher = more trypsin-susceptible (destabilized)
Details: ligand concentration: 10 uM; sample: E. coli crude lysate

Target	log2 fold change
UniProt P0ACN7 (peptide sequence: AAREVGYLPQPMGR, peptide start residue: 47)	-0.403
UniProt P0AA39 (peptide sequence: DTSGVLLVAK, peptide start residue: 146)	0.464
UniProt P0ACR7 (peptide sequence: VFVTVAQEK, peptide start residue: 10)	-0.0866
UniProt P0A9U1 (peptide sequence: FFSGVYGLR, peptide start residue: 425)	-0.671
UniProt P0ACL0 (peptide sequence: RAIIENSR, peptide start residue: 193)	0.671
UniProt P0AB12 (peptide sequence: VVSVETAQAAR, peptide start residue: 129)	-0.0104
UniProt P0ACL7 (peptide sequence: FDEDQAR, peptide start residue: 232)	-0.117
UniProt P0AC84 (peptide sequence: AKNQITLPVILK, peptide start residue: 197)	0.206
UniProt P0AC00 (peptide sequence: ACGALTAAFTK, peptide start residue: 117)	-0.192
UniProt P0ACU5 (peptide sequence: SFASLSLR, peptide start residue: 47)	-0.285
UniProt P0AC51 (peptide sequence: EAEPQAKPPTVYR, peptide start residue: 53)	0.0751
UniProt P0AAT4 (peptide sequence: HQEINEWNR, peptide start residue: 299)	-0.144
UniProt P0A9W9 (peptide sequence: TNIQDGSMLHVTHK, peptide start residue: 58)	0.229
UniProt P0AAB8 (peptide sequence: NIQWPKTK, peptide start residue: 76)	-0.184
UniProt P0AA37 (peptide sequence: LLLHAEMLTITHPAYGNSMTFK, peptide start residue: 193)	0.544
UniProt P0AA41 (peptide sequence: LDRPTSGVLLMGLSSEAGR, peptide start residue: 53)	0.584
UniProt P0AAV6 (peptide sequence: DGRCPDINK, peptide start residue: 97)	0.589
UniProt P0AB96 (peptide sequence: GAFSKEDGEK, peptide start residue: 122)	0.353
UniProt P0A9T4 (peptide sequence: EKLIIASK, peptide start residue: 80)	-0.206
UniProt P0ABM9 (peptide sequence: EIVDYMVAR, peptide start residue: 78)	0.118
UniProt P0ACK8 (peptide sequence: QNQDSGDPFHIR, peptide start residue: 61)	-0.147
UniProt P0ABU5 (peptide sequence: IFDFPLR, peptide start residue: 144)	-0.188
UniProt P0ACW6 (peptide sequence: FMSLFDK, peptide start residue: 19)	-0.155
UniProt P0AB24 (peptide sequence: FTGFHRLEK, peptide start residue: 213)	0.808
UniProt P0AAK1 (peptide sequence: PLDIPANANTPK, peptide start residue: 104)	-0.204
UniProt P0AAJ3 (peptide sequence: CTLCVDR, peptide start residue: 160)	-0.525

An excerpt of these results, with bars between the fields.
Target | log2 fold change
UniProt P0AA37 (peptide sequence: LLLHAEMLTITHPAYGNSMTFK, peptide start residue: 193) | 0.544
UniProt P0AA41 (peptide sequence: LDRPTSGVLLMGLSSEAGR, peptide start residue: 53) | 0.584
UniProt P0AAV6 (peptide sequence: DGRCPDINK, peptide start residue: 97) | 0.589
UniProt P0AB96 (peptide sequence: GAFSKEDGEK, peptide start residue: 122) | 0.353
UniProt P0A9T4 (peptide sequence: EKLIIASK, peptide start residue: 80) | -0.206
UniProt P0ABM9 (peptide sequence: EIVDYMVAR, peptide start residue: 78) | 0.118
UniProt P0ACK8 (peptide sequence: QNQDSGDPFHIR, peptide start residue: 61) | -0.147
UniProt P0ABU5 (peptide sequence: IFDFPLR, peptide start residue: 144) | -0.188
